In PMC8968858 one finds binding data, which are given here for one substance.

Protein sequences, listed by entry. Tags and fused reporters are not part of them. Residues count along the entry.
UniProt Q9ULX9: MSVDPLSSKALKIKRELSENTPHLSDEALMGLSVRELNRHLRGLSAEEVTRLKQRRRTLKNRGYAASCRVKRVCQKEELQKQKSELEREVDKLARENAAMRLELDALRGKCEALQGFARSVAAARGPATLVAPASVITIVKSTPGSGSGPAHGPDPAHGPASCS
UniProt P06733, residues 94-434: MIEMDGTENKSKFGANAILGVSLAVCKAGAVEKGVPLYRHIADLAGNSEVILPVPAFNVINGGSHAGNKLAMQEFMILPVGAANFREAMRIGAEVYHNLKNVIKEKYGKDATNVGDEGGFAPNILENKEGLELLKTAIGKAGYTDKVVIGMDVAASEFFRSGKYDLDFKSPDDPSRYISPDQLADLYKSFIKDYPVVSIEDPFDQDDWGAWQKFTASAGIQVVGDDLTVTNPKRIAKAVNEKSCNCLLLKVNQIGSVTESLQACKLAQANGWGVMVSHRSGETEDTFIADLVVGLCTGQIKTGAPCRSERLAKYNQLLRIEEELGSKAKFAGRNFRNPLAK

The target in this assay is MAF bZIP transcription factor F (MAFF) (human (endogenous in Caco-2)) (UniProt Q9ULX9). Nature of the assay: co-IP; Caco-2 lysate in RIPA buffer, rabbit MAFF antibody, Protein-A agarose, washed 5 times with RIPA buffer; Western blot with MAFF and ENO1 (MBP1) antibodies. Background: Immunoblotting shows a protein as a band on a membrane.

No constants are given. Whether binding was seen depends on the method and setting. Binding seen in cells or lysates may run through a third protein. Some results given as binding are weak or reduced against the parent protein; the word gives no strength.

In the case of “c-myc promoter binding protein 1 (MBP1) (from UniProt P06733-2 1-341)”, the binding entry is “binds”.
